Results are given in words; binding and its absence hold for the method and conditions named. Binding seen in cells or lysates may run through a third protein. Here binding means that the protein was enriched with, or labelled near, the bait; the list need not be complete.
T1: p140Cap adaptor protein (UniProt Q9QWI6)
T1 sequence: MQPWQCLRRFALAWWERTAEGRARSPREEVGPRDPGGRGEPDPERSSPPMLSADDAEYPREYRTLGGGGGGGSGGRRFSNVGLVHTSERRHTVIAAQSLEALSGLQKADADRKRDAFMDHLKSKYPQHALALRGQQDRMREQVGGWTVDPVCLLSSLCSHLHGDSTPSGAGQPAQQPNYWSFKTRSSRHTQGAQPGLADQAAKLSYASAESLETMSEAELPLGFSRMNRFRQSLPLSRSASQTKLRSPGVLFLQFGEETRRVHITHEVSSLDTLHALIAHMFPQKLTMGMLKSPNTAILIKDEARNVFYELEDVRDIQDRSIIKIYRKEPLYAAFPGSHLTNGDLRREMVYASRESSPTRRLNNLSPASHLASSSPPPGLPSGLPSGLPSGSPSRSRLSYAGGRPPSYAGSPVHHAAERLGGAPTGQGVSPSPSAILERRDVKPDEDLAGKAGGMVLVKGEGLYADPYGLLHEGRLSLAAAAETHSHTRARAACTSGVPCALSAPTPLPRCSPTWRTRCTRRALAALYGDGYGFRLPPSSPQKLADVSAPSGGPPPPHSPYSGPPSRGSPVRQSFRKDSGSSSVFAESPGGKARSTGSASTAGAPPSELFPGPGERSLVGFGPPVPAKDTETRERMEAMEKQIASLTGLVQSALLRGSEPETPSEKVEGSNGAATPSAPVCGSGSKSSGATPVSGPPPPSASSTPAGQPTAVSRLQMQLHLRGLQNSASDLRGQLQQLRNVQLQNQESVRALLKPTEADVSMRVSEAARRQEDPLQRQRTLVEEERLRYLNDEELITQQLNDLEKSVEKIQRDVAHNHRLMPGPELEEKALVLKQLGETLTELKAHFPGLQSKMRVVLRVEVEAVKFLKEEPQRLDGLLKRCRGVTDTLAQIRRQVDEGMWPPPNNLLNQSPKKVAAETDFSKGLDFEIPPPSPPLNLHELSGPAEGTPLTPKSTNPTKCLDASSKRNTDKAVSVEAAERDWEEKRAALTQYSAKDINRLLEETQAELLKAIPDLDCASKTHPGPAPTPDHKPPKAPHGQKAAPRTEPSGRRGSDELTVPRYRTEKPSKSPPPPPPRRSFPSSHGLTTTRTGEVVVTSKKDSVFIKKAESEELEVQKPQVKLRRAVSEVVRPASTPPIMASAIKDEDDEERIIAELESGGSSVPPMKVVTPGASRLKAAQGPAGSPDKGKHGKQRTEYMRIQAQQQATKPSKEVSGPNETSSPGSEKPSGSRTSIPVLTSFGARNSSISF


What follows are binders tested against T1, p140Cap adaptor protein (assay: affinity purification with mass spectrometry; p140Cap Mab cross-linked to protein G Dynabeads, 9 mg cell extract of p140-TUBO against NeuT-TUBO (mock) cells, lysis buffer 150 mM NaCl, 50 mM Tris pH 7.4, 1% NP-40, 1 mM MgCl2, 5% glycerol, 2 h at 4°C; label-free nanoLC-MS/MS, three experiments).

Row | binding | Binder
1 | binds | Catenin delta-1 (protein, UniProt P30999 1-938) MDDSEVESTASILASVKEQEAQFEKLTRALEEERRHVSAQLERVRVSPQDANSLMANGTLTRRHQNGRFVGDADLERQKFSDLKLNGPQDHNHLLYSTIPRMQEPGQIVETYTEEDPEGAMSVVSVETTDDGTTRRTETTVKKVVKTMTTRTVQPVPMGPDGLPVDASAVSNNYIQTLGRDFRKNGNGGPGPYVGQAGTATLPRNFHYPPDGYGRHYEDGYPGGSDNYGSLSRVTRIEERYRPSMEGYRAPSRQDVYGPQPQVRVGGSSVDLHRFHPEPYGLEDDQRSMGYDDLDYGMMSDYGTARRTGTPSDPRRRLRSYEDMIGEEVPPDQYYWAPLAQHERGSLASLDSLRKGMPPPSNWRQPELPEVIAMLGFRLDAVKSNAAAYLQHLCYRNDKVKTDVRKLKGIPILVGLLDHPKKEVHLGACGALKNISFGRDQDNKIAIKNCDGVPALVRLLRKARDMDLTEVITGTLWNLSSHDSIKMEIVDHALHALTDEVIIPHSGWEREPNEDCKPRHIEWESVLTNTAGCLRNVSSERSEARRKLRECDGLVDALIFIVQAEIGQKDSDSKLVENCVCLLRNLSYQVHREIPQAERYQEALPTVANSTGPHAASCFGAKKGKDEWFSRGKKPTEDPANDTVDFPKRTSPARGYELLFQPEVVRIYISLLKESKTPAILEASAGAIQNLCAGRWTYGRYIRSALRQEKALSAIAELLTSEHERVVKAASGALRNLAVDARNKELIGKHAIPNLVKNLPGGQQNSSWNFSEDTVVSILNTINEVIAENLEAAKKLRETQGIEKLVLINKSGNRSEKEVRAAALVLQTIWGYKELRKPLEKEGWKKSDFQVNLNNASRSQSSHSYDDSTLPLIDRNQKSDKKPDREEIPMSNMGSNTKSLDNNYSTLNERGDHNRTLDRSGDLGDMEPLKGAPLMQKI
2 | binds | ADD3 (protein, UniProt Q9QYB5 1-706) MSSDTSPAVVTTPPPPSMPHKERYFDRINESDPEYLRERNMSPDLRQDFNMMEQRKRVTQILQSPAFREDLECLIQEQMKKGHNPSGLLALQQIADYIVTSSFSGFSSPSLSLGMVTPINDLPGADTSSYVKGEKLTRCKLASLYRLADLFGWAHLANTYISVRISKEQDHIIIIPRGLSFSEATASTLVKVNIIGEVVDQGSTDLKIDHTGFSPHAAIYSTRPDVKCVIHIHTLATAAVSSMKCGILPISQESLILGDVAYYDYQGSLDEEEERIELQKVLGPSCKVLVLRNHGMVALGETLEEAFHYIFNVQMACEIQVQAVAGAGGVDNLLVLDLQKYKAFTHGVAMSGGGGVNMASHQKWKVGEIEFEGLMRTLDNLGYRTGYAYRHPLVREKPRHKSDVEIPATVTAFSFEDDSAPLSPLKFMAQRQQREKTRWLNSPNTYMKVNVPEESRNGETSPRTKITWMKAEDSSKVSSGTPIKIEDPNQFVPLNTNPTEVLEKRNKIREQNRYDLKTAGPQSQLLAGIVVDKPPSTMQFDDDDQGPPAPPNPFSHLLEGELEEYTKTIERKQQGLDDAEQGSLSDDAASVSQIQSQTQSPQSVPERLEENHELFSKSFTSMDAPVMIMNGKDEMHDVEDELAQRVSRLTTSTTIENIEITIKSPERTEEVLSPDGSPSKSPSKKKKKFRTPSFLKKNKKKEKVEA

Further lines, the binder ahead of its results:

Row | Binder | binding
3 | TOM1L2 (protein, UniProt Q5SRX1 1-507) MEFLLGNPFSTPVGQCLEKATDGSLQSEDWTLNMEICDIINETEEGPKDAIRALKKRLSGNRNYREVMLALTVLETCVKNCGHRFHLLVANRDFIDSVLVKIISPKNNPPTIVQDKVLALIQAWADAFRSSPDLTGVVHIYEELKRRGIEFPMADLDALSPIHTPQRSVPEMDPAATIPRSQTQPRTTAGTYSSPPPASYSTLQAPALSVTGPITANSEQIARLRSELDIVRGNTKVMSEMLTEMVPGQEDSSDLELLQELNRTCRAMQHRIVELISRVSNEEVTEELLHVNDDLNNVFLRYERFERYRSGRSVQNASNGVLSEVTEDNLIDLGPGSPAVVSPMVGSTAPPSSLSSQLAGLDLGTESVSGTLSSLQQCKPQDGFDMFAQTRGNSLAEQRKTVTYEDPQAVGGLASALDNRKQNSEMIPVAQPSVMDDIEVWLRTDLKGDDLEEGVTSEEFDKFLEERAKAAETVPDLPSPPTEAPAPASNTSTRKKPERSDDALFAL | binds
4 | PKP4 (protein, UniProt Q68FH0 1-1190) MPAPEQGSLVEEGQPQTHQEAVSTGPGMEPETTATTILASVKEQELQFQRLTRELEVERQIVASQLERCRLGAESPSIASTSSTEKSFPWRSTDVPNPGVSKPRVSDTIHPNNYLIRTEPEQGTLYSPEQTSLHESEGSLGNSRSSTQMNSYSDSGYQEAGSFHNSQTVNKADSRQHPFTGSTSNHVVRTSRAEGQTLVQPSVANRAMRRVSSVPSRAQSPSYVTSTGVSPSRGSLRTSLGSGFGSPSVTDSRPLNPSAYSSSTLPAQRAASPYSQRPASPTAVRRVGSVTSRQTSNPNGPVPQYQTTTRVGSPLTLTDAQTRVASPSQGQVGSSSPKRSGMTAVPQHLGPSLQRTVHDMDQFGQQQYDIYERMVPPRPDSLTGLRSSYASQHSQLGQELRSAVSPDLHITPIYEGRTYYSPVYRSPNHGTVELQGSQTALYRTGSVGIGNLQRTSSQRSTLTYQRNNYALNTAATYAEPYRPVQYRVQECSYNRLQHTGPADDGATRSPSIDSIQKDPREFAWRDPELPEVIHMLQHQFPSVQANAAAYLQHLCFGDNKVKMEVYRLGGIKHLVDLLDHRVLEVQKNACGALRNLVFGKSTDENKIAMKNVGGIPALLRLLRKSIDAEVRELVTGVLWNLSSCDAVKMTIIRDALSTLTNTVIVPHSGWNNSSFDDDHKIKFQTSLVLRNTTGCLRNLSSAGEEARKQMRSCEGLVDSLLYVIHTCVNTSDYDSKTVENCVCTLRNLSYRLELEVPQARLLGLNELDDLLGKESPSKDSEPSCWGKKKKKKKRTPQEDQWDGVGPIPGLSKSPKGVEMLWHPSVVKPYLTLLAESSNPATLEGSAGSLQNLSAGNWKFAAYIRAAVRKEKGLPILVELLRMDNDRVVSSVATALRNMALDVRNKELIGKYAMRDLVNRLPGGNGPSILSDETVAAICCALHEVTSKNMENAKALADSGGIEKLVNITKGRGDRSSLKVVKAAAQVLNTLWQYRDLRSIYKKDGWNQNHFITPVSTLERDRFKSHPSLSTTNQQMSPIIQSVGSTSSSPALLGIREPRSEYDRTQPPMQYYNSQGDTTHKGLYPGSSKPSPIYISSYSSPAREQNRRLQHQQLYYQDDSTRKTLDAYRLYLQSPRSYEDPYCDDRVHFPASTDYSTQYGLKSTTNYVDFYSTKRPSYRAEQYPGSPDSWV | binds
5 | MCC (protein, UniProt E9PWI3 1-1003) MAAASACNSSGGSSDTSSTGEEERLRRLFQTCDGDGDGYISRNDLLMVCRQLSMEESVAEIMNQLGSDENGKISFQDFTRCHTQLVREIRKEEGDLSMKSDMSSTKRLSERITSWPTSSDNSLGALSAARESWEDDSGARDLQSPDLQSQRPLQKLLEYGGSSLPQQAVLHKLLTHAPNFGTSTGGSYLELASTLHLAALASLKGDIVELNKRLQQTERERDLLEKKLAKAQCEQSHLMREHEDVQERTTLRYEERITELHSIIAELNKKIDRLQGTTIREEDEYSELRSELSQSQQEVNEDSRSVDQDQTSVSIPENQSTMVTADMDNCSDLNSELQRVLTGLESVVCGRKKSSCSLSVADVDRHIEQLTTASEHCDLAIKTVEEIEGVLGRDLYPNLAEERSRWEKELAGLREENESLTAMLCSKEEELNRTKATMNAIREERDRLRRRVRELQTRLQSVQATGPSSPGRLTPANRPINPSTGELSTSSSSNDIPIAKIAERVKLSKTRSESSSSDRPVLGSEISSIGVSSSVAEHLAHSLQDCSNIQEIFQTLYSHGSAISESKIREFEVETERLNSRIEHLKSQNDLLTITLEECKSNAERMSMLVGKYESNATALRLALQYSEQCIEAYELLLALAESEQSLILGQFRAAGVGSSPGDQSGDENITQMLKRAHDCRKTAENAAKALLMKLDGSCGGAFAVAGCSVQPWESLSSNSHTSTTSSTASSCDTEFTKEDEQRLKDYIQQLKNDRAAVKLTMLELESIHIDPLSYDVKPRGDSQRLDLENAVLMQELMAMKEEMAELKAQLYLLEKEKKALELKLSTREAQEQAYLVHIEHLKSEVEEQKEQRTRSLSSTSSSGKEKPGKECADAASPALSLAELRTNSDSELATEFANAIRREKKLKARVQELVSALERLTKSSEIRHQQSAEFVNDLKRANSNLVAAYEKAKKKHQNKLKKLESQMMAMVERHETQVRMLKQRIALLEEENSRPHTNETSL | binds

Reference: publication PMC6803390
